In this assay the target is σ^SsdA (AMIS_54240) (Actinoplanes missouriensis) (UniProt I0HCA7). The assay is described as follows: two-hybrid; bacterial adenylate cyclase-based two-hybrid (BACTH, Euromedex) in E. coli BTH101; T25 fusions in pKT25 and T18 fusions in pUT18C; cultures with IPTG at 30 °C for 48 h; β-galactosidase activity (Miller units) against empty vectors.

No constants are given. Whether binding was seen depends on the method and setting. Binding can be weak; no strength is given.

Turning to “SipA (SsdA inhibitor protein, AMIS_54230) (from UniProt I0HCA6)”, the binding entry is given as “binds”.
